# Results of single-concentration screens

Sequences of proteins named here, by UniProt entry; tags and fusion partners are left off.
UniProt I6X8D2, whole entry: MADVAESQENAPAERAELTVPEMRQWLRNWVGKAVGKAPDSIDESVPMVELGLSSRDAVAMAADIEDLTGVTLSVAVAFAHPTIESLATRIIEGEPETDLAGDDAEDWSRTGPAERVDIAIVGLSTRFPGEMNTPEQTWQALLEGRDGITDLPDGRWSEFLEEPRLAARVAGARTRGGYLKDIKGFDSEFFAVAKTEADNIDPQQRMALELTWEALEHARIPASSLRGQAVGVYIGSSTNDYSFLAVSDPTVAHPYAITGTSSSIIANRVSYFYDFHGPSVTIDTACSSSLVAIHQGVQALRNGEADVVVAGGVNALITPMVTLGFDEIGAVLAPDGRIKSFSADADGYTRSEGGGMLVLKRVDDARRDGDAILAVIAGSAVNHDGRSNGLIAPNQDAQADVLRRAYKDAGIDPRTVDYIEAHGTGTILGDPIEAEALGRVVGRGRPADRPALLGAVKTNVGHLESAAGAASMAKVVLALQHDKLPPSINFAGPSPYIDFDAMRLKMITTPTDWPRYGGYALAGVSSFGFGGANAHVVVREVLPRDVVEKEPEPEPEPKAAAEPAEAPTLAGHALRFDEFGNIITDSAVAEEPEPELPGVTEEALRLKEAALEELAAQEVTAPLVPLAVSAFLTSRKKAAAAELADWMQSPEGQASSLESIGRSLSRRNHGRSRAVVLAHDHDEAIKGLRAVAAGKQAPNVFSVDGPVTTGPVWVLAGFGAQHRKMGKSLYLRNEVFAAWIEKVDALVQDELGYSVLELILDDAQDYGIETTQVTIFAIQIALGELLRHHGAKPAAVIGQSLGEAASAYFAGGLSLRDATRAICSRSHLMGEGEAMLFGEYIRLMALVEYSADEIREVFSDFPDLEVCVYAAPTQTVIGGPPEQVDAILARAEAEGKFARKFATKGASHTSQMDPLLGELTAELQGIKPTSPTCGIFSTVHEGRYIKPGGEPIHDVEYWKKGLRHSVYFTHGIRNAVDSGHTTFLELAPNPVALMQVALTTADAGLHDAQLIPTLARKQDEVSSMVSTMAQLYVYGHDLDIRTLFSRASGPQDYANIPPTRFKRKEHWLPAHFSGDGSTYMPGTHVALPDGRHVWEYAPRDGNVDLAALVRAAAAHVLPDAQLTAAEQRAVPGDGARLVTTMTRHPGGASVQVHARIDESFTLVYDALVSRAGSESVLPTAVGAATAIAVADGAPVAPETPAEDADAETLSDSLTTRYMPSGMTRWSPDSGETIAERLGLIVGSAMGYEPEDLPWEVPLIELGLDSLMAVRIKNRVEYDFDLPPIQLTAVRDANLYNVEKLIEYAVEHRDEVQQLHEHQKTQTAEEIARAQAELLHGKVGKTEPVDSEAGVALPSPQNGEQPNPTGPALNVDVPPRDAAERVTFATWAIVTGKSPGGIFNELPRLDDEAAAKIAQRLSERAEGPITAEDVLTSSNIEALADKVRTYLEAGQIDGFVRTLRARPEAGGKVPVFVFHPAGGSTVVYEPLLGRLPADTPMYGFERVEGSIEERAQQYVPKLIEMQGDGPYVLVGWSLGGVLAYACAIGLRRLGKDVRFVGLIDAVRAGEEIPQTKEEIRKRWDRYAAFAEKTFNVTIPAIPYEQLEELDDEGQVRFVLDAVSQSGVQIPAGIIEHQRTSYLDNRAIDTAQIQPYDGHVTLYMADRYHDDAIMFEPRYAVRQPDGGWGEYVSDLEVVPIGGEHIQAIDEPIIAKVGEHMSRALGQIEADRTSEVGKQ

Data taken from ChEMBL document CHEMBL3988442, “University of Dundee, Small-Polar-MMV Screening Library” (2021).

Values are the deposited “Percent Effect”, in %. The controls that fix the scale are not given in the record; negative values are as filed. This is an unselected part of the compounds tested.

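Enzyme assay of the thioesterase domain of polyketide synthase 13; the read-out is not stated. Target: Polyketide synthase Pks13, Mycobacterium tuberculosis (UniProt I6X8D2). Tested at 30 µM. Higher reads as stronger inhibition (inferred from which compounds were picked for retests). Of about 67,000 compounds tested this way, about 300 (0.46%) reached 50% or more in at least one test.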

SMILES	Percent Effect
O=C(Nc1nncs1)N1CCC(CCc2ccc(O)cc2)CC1	23.14
CCC(=O)N1CCC(Cc2cc(Nc3ncccn3)ncn2)CC1	20.38
Cc1n[nH]cc1CNC1(Cc2ccc(Br)cc2)CCCCC1	-16.69
c1ncc2c(n1)CN(Cc1nc(-c3ccoc3)no1)CC2	-5.308
Cc1ccc2c(n1)N(CCn1cccn1)CCN(C(=O)NC1CC1)C2	-8.206
COc1ccc(OC)c(C2CCN(C(=O)CCc3n[nH]c(N)n3)C2)c1 (stereo not drawn)	-18.67
Cc1ccc(-c2ccc(Cl)nn2)cc1S(=O)(=O)N1CCOCC1	-27.12
CN(C)c1nc(NCc2cccnc2N)ncc1F	-17.97
c1ccc(Sc2ccc3c(c2)OCO3)c(CNC2=NCCN2)c1	-15.64
Cc1ccc(C2CN(CCCS(=O)(=O)C(C)C)CCO2)c(C)c1 (stereo not drawn)	-4.747
CN(C)C(=O)CN1CCN(C(=O)Cc2csc(-c3ncccn3)n2)CC1	-12.12
CCOC(=O)CC1CCCCN1C(=O)c1cnc(C)cn1 (stereo not drawn)	-23.24
Cc1ccccc1OCCN1CCN(Cc2cnn(CCO)c2)CC1	-19.96
O=C(Cc1ccccc1F)N1CCN(Cc2noc(C3CC3)n2)CC1	-23.04
c1coc(CN2CCO[C@@]3(CCC[C@@H]3COCc3nccs3)C2)c1	-5.595
CS(=O)(=O)N1Cc2cnn(CC3CC3)c2C(COCC2CC2)C1 (stereo not drawn)	5.254
CCCS(=O)(=O)N1CCCN(CCCOC)CC1	-5.455
CC1c2ncc(Cn3cncn3)n2CCN1C(=O)c1ccccn1 (stereo not drawn)	-26.95
CCOCC1CN(Cc2ccsc2)Cc2cnn(C)c21 (stereo not drawn)	-17.15
Cc1ccc(OCCN(C)Cc2ccc(S(=O)(=O)N(C)C)o2)cc1	8.177
Cc1ncc(C(=O)N2CCCC(C(=O)c3nccn3C)C2)c(O)n1 (stereo not drawn)	-13.58
CCN1CCC(NC(=O)CN2CCCCC2Cn2cc(C)cn2)CC1 (stereo not drawn)	-6.994
Cn1nnc2c1CCN(C(=O)C1CCC1)C2COCCN1CCCC1 (stereo not drawn)	4.92
Cc1ccsc1C(=O)N1CCCn2c(nc(CN(C)C)cc2=O)C1	-17.3
CN1C[C@@H](O)[C@]2(CCN(C(=O)OCc3ccccc3)C2)S1(=O)=O	10.35
CN(C)c1ncc(CNC(=O)Nc2ccccc2F)n1C	-2.046
Cc1ccc(CN2CC(C(=O)Nc3ccccc3)C3(CCOCC3)C2)s1 (stereo not drawn)	-24.92
CCNC(=O)c1nc2c(s1)CCCN2S(C)(=O)=O	31
COc1ccc(CNc2ncc(-c3cc(C)no3)c(C(C)C)n2)cc1	-0.669
CNS(=O)(=O)c1ccccc1N1CCN(C(=O)NC(C)C)CC1	-6.844
O=C(c1cc(Cl)c2c(c1)OCO2)N1CCN(c2ccccn2)CC1	-50.24
CC(CN1CCOC1=O)NC(=O)c1cccc2cc[nH]c12 (stereo not drawn)	-3.479
COCc1nc(C(=O)N2CCCC(n3ccnc3)C2)cs1 (stereo not drawn)	-15.69
CCc1nc(C2CCCN2c2ncc(C(F)(F)F)cc2Cl)no1 (stereo not drawn)	-29.06
Cc1cc(S(=O)(=O)N2CCOCC2C#N)ccc1F (stereo not drawn)	-26.86
COCc1nc(N(C)C)ncc1C(=O)Nc1ccc(Cl)cc1	-14.42
Cc1cc(C(=O)N2CCCC(Cn3cc(C4CC4)nn3)C2)nc(C)n1 (stereo not drawn)	3.617
COCc1ncn2c1CN(C(=O)c1ccc[nH]1)CC2	-3.401
CCc1noc(C)c1C(=O)N1CCC2(CCCN(CC(C)(C)C)C2=O)C1 (stereo not drawn)	4.176
O=C(c1nc(=O)[nH][nH]1)N1CCCCCC1	1.132
CC(C)CNC(=O)c1nn(C)c(NC(=O)Cc2ccccc2)c1F	-20.48
COc1ccccc1C(=O)N1CCN(C(=O)Cc2ccccn2)CC1	-14.58
CN(Cc1n[nH]c(=O)n1Cc1ccco1)S(C)(=O)=O	-29.48
COc1cc(CNC(=O)c2csc(Br)c2)ccn1	2.865
Cc1nc(CN2CCCN(CC(=O)Nc3cccnc3)CC2)no1	21.13
Cc1c(F)cc(C(=O)O)cc1S(=O)(=O)Nc1cccc(C(F)F)c1	-7.674
CNC(=O)c1ccc(CNC(=O)c2ccc(Cl)cc2F)cc1	7.245
CC(=O)N(Cc1noc(C2CC2)n1)C1CCN(Cc2ccccn2)C1 (stereo not drawn)	-3.266
O=C1CC(c2cccnc2)C2(CCN(C(=O)N3CCOCC3)CC2)N1 (stereo not drawn)	-7.117
C/N=C1\c2cc3cc(OC)ccc3n2CCN1Cc1ccccc1	7.446
CC[C@@H](c1ccccc1)n1c(CN)n[nH]c1=O	-10.75
O=S(=O)(C1CC1)N1CCc2ncc(Cn3cncn3)n2CC1	-16.7
COc1ccc(C(=O)C2CCCN(Cc3cc(C)n[nH]3)C2)c(OC)c1 (stereo not drawn)	-38.21
CC(C)(CO)CCCNC(=O)NC1(c2cccc(F)c2)CC1	-8.139
O=c1[nH]cnc2c1CCN(S(=O)(=O)c1ccc(OC(F)(F)F)cc1)C2	1.947
COCCN1CCC(CN(CC2CCCO2)C(=O)COC)CC1 (stereo not drawn)	-20.21
O=C(NCCN1CCCCC1)c1nc(-c2ccc3cc[nH]c3c2)no1	-8.157
CC(=O)N(Cc1ncc(C)o1)C1CCN(Cc2ccccc2F)C1 (stereo not drawn)	-21.65
CC(Cn1ccnc1)NC(=O)NCCc1ccc2c(c1)OCCO2 (stereo not drawn)	-34.51
Cc1n[nH]cc1CNC(=O)Nc1cccc(OCC(F)(F)F)c1	9.805
Cc1cnc(CN2CCCC(c3cc(C)[nH]n3)C2)cn1 (stereo not drawn)	-23.08
CN(Cc1ccc(F)c2cccnc12)C1CCS(=O)(=O)C1 (stereo not drawn)	-28.6
O=C(Cc1ccsc1)N1C[C@@H]2OCCN(CC3CC3)[C@@H]2C1	-20.87
CC(C)(C)c1noc(CN2CCCc3cc(OC(F)(F)F)ccc32)n1	-1.584
O=C(c1ccsc1)N1CCO[C@@H]2CN(Cc3ccco3)CC[C@@H]2C1	-7.876
Cc1ccc(N2CCCC3(COCCN(c4cnccn4)C3)C2)nn1 (stereo not drawn)	2.876
Cn1cnnc1C1CCN(C(=O)CCCOCc2ccccc2)CC1	-4.888
COc1ccc(NC(=O)CCSc2ccc3nncn3n2)c(OC)c1	-9.215
CCN1CCC(CNC(=O)NCc2cc(-c3ccc(C)cc3)no2)C1 (stereo not drawn)	-13.65
CN(C)C(=O)CNC(=O)c1cc2ccccc2nc1N1CCCC1	-2.614
Cc1ccc(O[C@@H]2C[C@H]3CN(C(=O)c4cccnc4)CCN3C2)cc1	-1.851
CN1C[C@H](c2ccccc2)[C@H]2CN(C(=O)Cc3cccc(O)c3)CC[C@H]21	-5.078
Cc1ccc(N2CCCN(C(=O)CC3CCCO3)CC2)nn1 (stereo not drawn)	-1.429
Cc1ccc2c(n1)N(C)CCN(C(=O)NC1CC1)C2	-14.26
CCCC(=O)N1CCCCC1C(=O)Nc1ccc(-c2nnc[nH]2)cc1 (stereo not drawn)	4.056

The last 5 entries again:

SMILES,Percent Effect
Cc1ccc(O[C@@H]2C[C@H]3CN(C(=O)c4cccnc4)CCN3C2)cc1,-1.851
CN1C[C@H](c2ccccc2)[C@H]2CN(C(=O)Cc3cccc(O)c3)CC[C@H]21,-5.078
Cc1ccc(N2CCCN(C(=O)CC3CCCO3)CC2)nn1 (stereo not drawn),-1.429
Cc1ccc2c(n1)N(C)CCN(C(=O)NC1CC1)C2,-14.26
CCCC(=O)N1CCCCC1C(=O)Nc1ccc(-c2nnc[nH]2)cc1 (stereo not drawn),4.056